Reference: the supplement of paper PMC11348887
Where a name gives a salt, the structure may show the parent alone. ± gives the standard deviation of the averaged measurements. Some of the results follow. Most values lie at the level of the controls, where differences are scatter.

Tested on: hPSC-derived cortical neurons (WA09)
Assay: nucleus roundness z-score vs screen plate; higher = rounder nuclei (more mature)
Conditions: 5 µM; treatment: days 7-14 after plating, readout day 21

SMILES	nucleus roundness z-score
CC1(C)CC[C@]2(C(=O)O)CC[C@]3(C)C(=CC[C@@H]4[C@@]5(C)CC[C@H](O)C(C)(C)[C@@H]5CC[C@]43C)[C@@H]2C1 [Oleanolic Acid]	-1.02
CO[C@H]1C[C@@H]2CC[C@@H](C)[C@@](O)(O2)C(=O)C(=O)N2CCCC[C@H]2C(=O)O[C@H]([C@H](C)C[C@@H]2CC[C@@H](OP(C)(C)=O)[C@H](OC)C2)CC(=O)[C@H](C)/C=C(\C)[C@@H](O)[C@@H](OC)C(=O)[C@H](C)C[C@H](C)/C=C/C=C/C=C/1C [Ridaforolimus (Deforolimus, MK-8669)]	-4.2
CNC(=O)c1ccc(C)c(-n2c(C)cc(OCc3ccc(F)cc3F)c(Br)c2=O)c1	-0.11
CC12CCC(CC1=O)C2(C)C (stereo not drawn) [(+)-Camphor]	1.06
OC[C@H]1OC(O)[C@H](O)[C@@H](O)[C@@H]1O (stereo partly specified) [Dextrose]	1.15
CC(C)c1cc(-c2n[nH]c(=O)n2-c2ccc3c(ccn3C)c2)c(O)cc1O [Ganetespib (STA-9090)]	-2.57
NCCc1c[nH]cn1 [Histamine Phosphate]	-0.968
O=C(O)Cc1ccccc1Nc1c(Cl)cccc1Cl [Diclofenac Potassium]	-0.224
CC(O)c1cc(C(=O)N[C@@H](C)Cn2ccc(-c3ccc(C#N)c(Cl)c3)n2)n[nH]1 (stereo partly specified)	0.741
CC(C)N(C[C@H]1O[C@@H](n2cnc3c(N)ncnc32)[C@H](O)[C@@H]1O)[C@H]1C[C@@H](CCc2nc3cc(C(C)(C)C)ccc3[nH]2)C1	1.66
CN(C)Cc1cccc(N=C(c2ccccc2)c2c(O)[nH]c3cc(C(=O)N(C)C)ccc23)c1	-0.944
O=C(O)COCCN1CCN(C(c2ccccc2)c2ccc(Cl)cc2)CC1 (stereo unspecified) [Cetirizine DiHCl]	0.218
Nc1nc(N)c2nc(-c3cccc(O)c3)c(-c3cccc(O)c3)nc2n1	1.42
Nc1nc(Cl)nc2c1ncn2[C@H]1C[C@H](O)[C@@H](CO)O1 [Cladribine]	-1.48
N#Cc1ccc(COC[C@H]2O[C@@H](n3c(NCc4ccc(Cl)c(Cl)c4)nc4c(N)ncnc43)[C@H](O)[C@@H]2O)cc1	0.741
CN(C)Cc1ccc(-c2nc3cccc4c3n2CCNC4=O)cc1	0.332
Cc1ccc(NC(=O)c2cccc(C(C)(C)C#N)c2)cc1Nc1ccc2ncn(C)c(=O)c2c1	0.599
CC(C)NC[C@H](O)COc1ccc(CCOCC2CC2)cc1 [Levobetaxolol HCl]	-0.175
CC(=O)O/N=C1\C(=O)N(Cc2cc(Cl)ccc2Cl)c2ccc(Cl)cc21	1.61
COc1cccc(-n2c(=O)[nH]c3cc(Cl)n(-c4ccc(-c5cccc(OC)c5O)cc4)c3c2=O)c1	-0.573
CC[C@H]1OC(=O)[C@H](C)[C@@H](O[C@H]2C[C@@](C)(OC)[C@@H](O)[C@H](C)O2)[C@H](C)[C@@H](O[C@@H]2O[C@H](C)C[C@H](N(C)C)[C@H]2O)[C@](C)(O)C[C@@H](C)C(=O)[C@H](C)[C@@H](O)[C@]1(C)O [Erythromycin]	-0.223 ± 0.026
CCN(CC)Cc1cc(Nc2ccnc3cc(Cl)ccc23)ccc1O [Amodiaquine dihydrochloride dihydrate]	-1.95
CC(=O)[C@]1(O)Cc2c(O)c3c(c(O)c2[C@@H](O[C@H]2C[C@H](N)[C@H](O)[C@H](C)O2)C1)C(=O)c1ccccc1C3=O [Idarubicin HCl]	-0.751
C=CC(=O)Nc1cccc(Nc2nc(Nc3ccc(OCCOC)cc3)ncc2F)c1	-0.426
CC[C@H]1OC(=O)[C@H](C)[C@@H](O[C@H]2C[C@@](C)(OC)[C@@H](O)[C@H](C)O2)[C@H](C)[C@@H](O[C@@H]2O[C@H](C)C[C@H](N(C)C)[C@H]2O)[C@](C)(O)C[C@@H](C)/C(=N\OCOCCOC)[C@H](C)[C@@H](O)[C@]1(C)O [Roxithromycin]	-0.439
CCCNC(=O)NS(=O)(=O)c1ccc(Cl)cc1 [Chlorpropamide]	0.026

Tested on: hPSC-derived cortical neurons (WA09)
Assay: KCl-induced FOS+/EGR-1+ double-positive nuclei fraction z-score (KCl minus unstimulated); higher = stronger activity-induced IEG response
Conditions: 5 µM; treatment: days 7-14 after plating, readout day 21

SMILES	KCl-induced FOS+/EGR-1+ double-positive nuclei fraction z-score
Cc1ncc(CO)c(CO)c1O [Pyridoxine HCl]	1.11
Cc1ccc(S(=O)(=O)NC(=O)NN2CC3CCCC3C2)cc1 (stereo unspecified) [Gliclazide]	0.799
CCCC(CCC)C(=O)O [Divalproex Sodium]	0.922
CCOC(=O)C1=C[C@@H](OC(CC)CC)[C@H](NC(C)=O)[C@@H](N)C1 [Oseltamivir Phosphate]	0.884
O=C(O)c1cccnc1 [Nicotinic Acid]	1.43
N=C(N)NC(=N)N1CCOCC1 [Moroxydine HCl]	2.65
CCCN(CCC)CCc1cccc2c1CC(=O)N2 [Ropinirole HCl]	-0.304
CCCN[C@H]1CCc2nc(N)sc2C1 [Pramipexole]	-0.444
C[C@H]1C[C@H]2[C@@H]3CCC4=CC(=O)C=C[C@]4(C)[C@@]3(F)[C@@H](O)C[C@]2(C)[C@@]1(O)C(=O)CO [Betamethasone]	-0.227
CN(C)c1ccc(O)c2c1C[C@H]1C[C@H]3[C@H](N(C)C)C(O)=C(C(N)=O)C(=O)[C@@]3(O)C(O)=C1C2=O [Minocycline HCl]	0.316
Cc1cc(Nc2nc(N[C@@H](C)c3ncc(F)cn3)ncc2Cl)[nH]n1	-0.451
COc1cc(F)c(C(C)C)cc1-c1ccc(C(F)(F)F)cc1CN1C(=O)O[C@H](c2cc(C(F)(F)F)cc(C(F)(F)F)c2)[C@@H]1C [Anacetrapib (MK-0859)]	-0.39
COc1cc(CCC(C)=O)ccc1O [Vanillylacetone]	0.285
Cc1cccc(Nc2cc(Cl)nc(SCC(=O)O)n2)c1C	1.55
CC1(C)CC[C@]2(C(=O)O)CC[C@]3(C)C(=CC[C@@H]4[C@@]5(C)CC[C@H](O)C(C)(C)[C@@H]5CC[C@]43C)[C@@H]2C1 [Oleanolic Acid]	-1.13
CO[C@H]1C[C@@H]2CC[C@@H](C)[C@@](O)(O2)C(=O)C(=O)N2CCCC[C@H]2C(=O)O[C@H]([C@H](C)C[C@@H]2CC[C@@H](OP(C)(C)=O)[C@H](OC)C2)CC(=O)[C@H](C)/C=C(\C)[C@@H](O)[C@@H](OC)C(=O)[C@H](C)C[C@H](C)/C=C/C=C/C=C/1C [Ridaforolimus (Deforolimus, MK-8669)]	-0.784
CNC(=O)c1ccc(C)c(-n2c(C)cc(OCc3ccc(F)cc3F)c(Br)c2=O)c1	1.72
CC12CCC(CC1=O)C2(C)C (stereo not drawn) [(+)-Camphor]	0.658
OC[C@H]1OC(O)[C@H](O)[C@@H](O)[C@@H]1O (stereo partly specified) [Dextrose]	0.518
CC(C)c1cc(-c2n[nH]c(=O)n2-c2ccc3c(ccn3C)c2)c(O)cc1O [Ganetespib (STA-9090)]	-0.565

Pulled by structure from above, 2 records:
SMILES	KCl-induced FOS+/EGR-1+ double-positive nuclei fraction z-score
COc1cc(F)c(C(C)C)cc1-c1ccc(C(F)(F)F)cc1CN1C(=O)O[C@H](c2cc(C(F)(F)F)cc(C(F)(F)F)c2)[C@@H]1C [Anacetrapib (MK-0859)]	-0.39
CC12CCC(CC1=O)C2(C)C (stereo not drawn) [(+)-Camphor]	0.658

The list goes on:

SMILES	KCl-induced FOS+/EGR-1+ double-positive nuclei fraction z-score
NCCc1c[nH]cn1 [Histamine Phosphate]	1.6
O=C(O)Cc1ccccc1Nc1c(Cl)cccc1Cl [Diclofenac Potassium]	-0.642
CC(O)c1cc(C(=O)N[C@@H](C)Cn2ccc(-c3ccc(C#N)c(Cl)c3)n2)n[nH]1 (stereo partly specified)	0.0968
CC(C)N(C[C@H]1O[C@@H](n2cnc3c(N)ncnc32)[C@H](O)[C@@H]1O)[C@H]1C[C@@H](CCc2nc3cc(C(C)(C)C)ccc3[nH]2)C1	2.37
CN(C)Cc1cccc(N=C(c2ccccc2)c2c(O)[nH]c3cc(C(=O)N(C)C)ccc23)c1	-0.416
O=C(O)COCCN1CCN(C(c2ccccc2)c2ccc(Cl)cc2)CC1 (stereo unspecified) [Cetirizine DiHCl]	-0.248
Nc1nc(N)c2nc(-c3cccc(O)c3)c(-c3cccc(O)c3)nc2n1	0.0942
Nc1nc(Cl)nc2c1ncn2[C@H]1C[C@H](O)[C@@H](CO)O1 [Cladribine]	-0.973
N#Cc1ccc(COC[C@H]2O[C@@H](n3c(NCc4ccc(Cl)c(Cl)c4)nc4c(N)ncnc43)[C@H](O)[C@@H]2O)cc1	1.69
CN(C)Cc1ccc(-c2nc3cccc4c3n2CCNC4=O)cc1	1.8
Cc1ccc(NC(=O)c2cccc(C(C)(C)C#N)c2)cc1Nc1ccc2ncn(C)c(=O)c2c1	0.68
CC(C)NC[C@H](O)COc1ccc(CCOCC2CC2)cc1 [Levobetaxolol HCl]	0.759
CC(=O)O/N=C1\C(=O)N(Cc2cc(Cl)ccc2Cl)c2ccc(Cl)cc21	-0.0489
COc1cccc(-n2c(=O)[nH]c3cc(Cl)n(-c4ccc(-c5cccc(OC)c5O)cc4)c3c2=O)c1	-1.09
CC[C@H]1OC(=O)[C@H](C)[C@@H](O[C@H]2C[C@@](C)(OC)[C@@H](O)[C@H](C)O2)[C@H](C)[C@@H](O[C@@H]2O[C@H](C)C[C@H](N(C)C)[C@H]2O)[C@](C)(O)C[C@@H](C)C(=O)[C@H](C)[C@@H](O)[C@]1(C)O [Erythromycin]	0.163 ± 1.8
CCN(CC)Cc1cc(Nc2ccnc3cc(Cl)ccc23)ccc1O [Amodiaquine dihydrochloride dihydrate]	-0.469
CC(=O)[C@]1(O)Cc2c(O)c3c(c(O)c2[C@@H](O[C@H]2C[C@H](N)[C@H](O)[C@H](C)O2)C1)C(=O)c1ccccc1C3=O [Idarubicin HCl]	-0.668
C=CC(=O)Nc1cccc(Nc2nc(Nc3ccc(OCCOC)cc3)ncc2F)c1	1.52
CC[C@H]1OC(=O)[C@H](C)[C@@H](O[C@H]2C[C@@](C)(OC)[C@@H](O)[C@H](C)O2)[C@H](C)[C@@H](O[C@@H]2O[C@H](C)C[C@H](N(C)C)[C@H]2O)[C@](C)(O)C[C@@H](C)/C(=N\OCOCCOC)[C@H](C)[C@@H](O)[C@]1(C)O [Roxithromycin]	-0.218
CCCNC(=O)NS(=O)(=O)c1ccc(Cl)cc1 [Chlorpropamide]	0.669
